Experimental data reported in the supplement of paper PMC6411743.
± gives the standard deviation of the averaged measurements. Only a part is listed here, and it is no random draw.

Sequences of proteins named here, by UniProt entry; tags and fusion partners are left off. A change or cut given only in a name is not applied to a line headed by its entry.
UniProt Q8TCB7: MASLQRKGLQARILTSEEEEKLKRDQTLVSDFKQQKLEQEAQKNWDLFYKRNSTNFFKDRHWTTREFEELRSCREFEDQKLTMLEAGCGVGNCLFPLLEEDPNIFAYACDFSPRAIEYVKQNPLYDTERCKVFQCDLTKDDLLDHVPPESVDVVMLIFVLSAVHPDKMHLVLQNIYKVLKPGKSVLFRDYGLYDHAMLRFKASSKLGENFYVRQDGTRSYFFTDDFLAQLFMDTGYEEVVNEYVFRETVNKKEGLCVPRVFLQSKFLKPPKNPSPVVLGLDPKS
UniProt Q8TDW0: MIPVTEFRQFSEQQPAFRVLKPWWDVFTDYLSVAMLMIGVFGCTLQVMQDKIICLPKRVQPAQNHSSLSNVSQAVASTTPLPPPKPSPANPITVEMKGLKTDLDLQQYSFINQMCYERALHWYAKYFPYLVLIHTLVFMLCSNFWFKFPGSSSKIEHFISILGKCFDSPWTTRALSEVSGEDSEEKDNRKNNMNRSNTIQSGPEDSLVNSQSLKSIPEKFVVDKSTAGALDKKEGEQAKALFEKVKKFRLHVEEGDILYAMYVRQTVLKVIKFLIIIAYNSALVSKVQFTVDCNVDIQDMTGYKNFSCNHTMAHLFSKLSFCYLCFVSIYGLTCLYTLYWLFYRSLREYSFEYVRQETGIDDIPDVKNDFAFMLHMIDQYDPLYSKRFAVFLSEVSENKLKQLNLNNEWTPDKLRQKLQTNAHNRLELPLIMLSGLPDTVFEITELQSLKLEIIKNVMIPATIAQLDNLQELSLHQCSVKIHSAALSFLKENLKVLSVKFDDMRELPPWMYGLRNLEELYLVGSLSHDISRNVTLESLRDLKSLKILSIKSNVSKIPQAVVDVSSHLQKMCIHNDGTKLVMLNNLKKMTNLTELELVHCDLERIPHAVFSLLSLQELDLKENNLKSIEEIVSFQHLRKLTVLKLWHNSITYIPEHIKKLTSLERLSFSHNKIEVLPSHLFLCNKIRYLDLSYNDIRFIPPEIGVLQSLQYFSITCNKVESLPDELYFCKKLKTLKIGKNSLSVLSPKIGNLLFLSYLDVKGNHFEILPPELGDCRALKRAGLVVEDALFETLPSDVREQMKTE
UniProt Q8TAA5: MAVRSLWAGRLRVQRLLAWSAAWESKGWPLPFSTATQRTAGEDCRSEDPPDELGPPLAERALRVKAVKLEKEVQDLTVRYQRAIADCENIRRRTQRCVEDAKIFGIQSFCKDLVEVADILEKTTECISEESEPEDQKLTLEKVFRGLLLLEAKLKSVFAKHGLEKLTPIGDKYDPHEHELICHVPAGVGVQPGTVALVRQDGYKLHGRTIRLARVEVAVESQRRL
UniProt Q8WXI9: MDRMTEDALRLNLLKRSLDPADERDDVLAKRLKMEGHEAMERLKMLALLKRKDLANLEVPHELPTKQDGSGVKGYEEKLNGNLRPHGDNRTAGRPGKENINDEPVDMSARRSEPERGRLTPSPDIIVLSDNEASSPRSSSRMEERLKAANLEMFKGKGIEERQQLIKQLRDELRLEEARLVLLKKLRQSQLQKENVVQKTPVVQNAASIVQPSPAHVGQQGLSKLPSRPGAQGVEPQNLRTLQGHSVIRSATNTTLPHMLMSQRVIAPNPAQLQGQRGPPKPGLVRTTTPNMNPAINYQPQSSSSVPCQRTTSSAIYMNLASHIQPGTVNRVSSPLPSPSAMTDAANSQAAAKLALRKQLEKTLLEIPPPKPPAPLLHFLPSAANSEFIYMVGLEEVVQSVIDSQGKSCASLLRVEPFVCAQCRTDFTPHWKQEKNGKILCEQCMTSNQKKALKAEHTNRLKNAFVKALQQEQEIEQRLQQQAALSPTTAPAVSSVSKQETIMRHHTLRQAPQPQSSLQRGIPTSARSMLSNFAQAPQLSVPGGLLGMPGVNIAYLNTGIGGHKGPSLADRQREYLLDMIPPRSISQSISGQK
UniProt Q92540: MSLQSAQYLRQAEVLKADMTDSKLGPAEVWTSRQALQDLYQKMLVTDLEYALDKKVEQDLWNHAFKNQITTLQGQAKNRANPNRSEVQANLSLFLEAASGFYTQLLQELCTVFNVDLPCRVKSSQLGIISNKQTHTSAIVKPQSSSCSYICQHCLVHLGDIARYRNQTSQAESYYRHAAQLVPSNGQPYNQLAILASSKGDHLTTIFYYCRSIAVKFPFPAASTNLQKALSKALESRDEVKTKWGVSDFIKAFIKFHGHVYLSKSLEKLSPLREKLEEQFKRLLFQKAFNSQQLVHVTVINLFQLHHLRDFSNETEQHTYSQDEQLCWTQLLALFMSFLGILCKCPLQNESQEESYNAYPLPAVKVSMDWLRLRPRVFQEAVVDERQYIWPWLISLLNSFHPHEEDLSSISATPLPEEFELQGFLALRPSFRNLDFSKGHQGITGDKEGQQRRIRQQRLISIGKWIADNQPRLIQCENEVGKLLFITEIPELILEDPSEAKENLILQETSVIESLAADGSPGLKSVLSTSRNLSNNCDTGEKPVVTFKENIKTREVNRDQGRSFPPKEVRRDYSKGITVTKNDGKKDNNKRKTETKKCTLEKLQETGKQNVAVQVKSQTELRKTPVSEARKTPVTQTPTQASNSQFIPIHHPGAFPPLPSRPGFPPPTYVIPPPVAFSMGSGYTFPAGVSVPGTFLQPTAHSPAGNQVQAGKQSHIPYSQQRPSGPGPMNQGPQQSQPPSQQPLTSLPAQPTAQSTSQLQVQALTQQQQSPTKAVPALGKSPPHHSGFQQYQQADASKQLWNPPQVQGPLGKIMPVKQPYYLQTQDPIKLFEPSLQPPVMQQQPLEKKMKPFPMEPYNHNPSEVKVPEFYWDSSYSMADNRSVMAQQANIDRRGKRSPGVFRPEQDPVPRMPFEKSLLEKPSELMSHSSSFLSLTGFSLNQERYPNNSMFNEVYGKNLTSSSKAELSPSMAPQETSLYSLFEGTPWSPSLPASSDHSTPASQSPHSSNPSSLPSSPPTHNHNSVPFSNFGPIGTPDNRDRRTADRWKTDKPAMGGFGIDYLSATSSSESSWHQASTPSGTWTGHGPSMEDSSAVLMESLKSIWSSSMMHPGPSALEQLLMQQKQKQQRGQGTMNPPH
UniProt Q8WUH2: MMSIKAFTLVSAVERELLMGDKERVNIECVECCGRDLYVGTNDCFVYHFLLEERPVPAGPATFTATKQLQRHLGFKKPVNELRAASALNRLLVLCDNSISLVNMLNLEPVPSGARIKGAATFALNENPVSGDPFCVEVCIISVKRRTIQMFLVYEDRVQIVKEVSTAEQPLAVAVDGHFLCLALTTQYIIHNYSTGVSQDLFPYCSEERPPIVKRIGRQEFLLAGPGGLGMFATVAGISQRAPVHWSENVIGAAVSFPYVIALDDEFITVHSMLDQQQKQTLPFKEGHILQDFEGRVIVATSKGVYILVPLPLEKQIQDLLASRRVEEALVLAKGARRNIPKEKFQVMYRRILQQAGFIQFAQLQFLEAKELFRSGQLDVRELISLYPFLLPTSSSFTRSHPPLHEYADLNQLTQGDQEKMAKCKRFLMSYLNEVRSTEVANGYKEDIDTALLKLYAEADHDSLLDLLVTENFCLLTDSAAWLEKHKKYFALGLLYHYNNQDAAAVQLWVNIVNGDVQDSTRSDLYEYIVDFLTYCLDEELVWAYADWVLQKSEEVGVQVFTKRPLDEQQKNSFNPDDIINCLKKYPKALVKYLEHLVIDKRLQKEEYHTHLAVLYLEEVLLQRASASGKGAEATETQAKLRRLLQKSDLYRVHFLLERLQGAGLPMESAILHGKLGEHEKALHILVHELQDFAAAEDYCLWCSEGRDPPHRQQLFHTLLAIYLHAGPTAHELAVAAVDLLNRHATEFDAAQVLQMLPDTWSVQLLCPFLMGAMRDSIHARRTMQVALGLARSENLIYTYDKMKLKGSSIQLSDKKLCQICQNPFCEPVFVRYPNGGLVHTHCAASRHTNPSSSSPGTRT
UniProt Q8WW12: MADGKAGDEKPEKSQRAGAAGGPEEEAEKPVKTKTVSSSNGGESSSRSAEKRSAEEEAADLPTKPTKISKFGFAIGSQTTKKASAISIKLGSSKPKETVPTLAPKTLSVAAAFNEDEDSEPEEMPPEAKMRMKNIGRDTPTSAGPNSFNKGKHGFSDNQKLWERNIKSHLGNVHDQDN
UniProt Q92604: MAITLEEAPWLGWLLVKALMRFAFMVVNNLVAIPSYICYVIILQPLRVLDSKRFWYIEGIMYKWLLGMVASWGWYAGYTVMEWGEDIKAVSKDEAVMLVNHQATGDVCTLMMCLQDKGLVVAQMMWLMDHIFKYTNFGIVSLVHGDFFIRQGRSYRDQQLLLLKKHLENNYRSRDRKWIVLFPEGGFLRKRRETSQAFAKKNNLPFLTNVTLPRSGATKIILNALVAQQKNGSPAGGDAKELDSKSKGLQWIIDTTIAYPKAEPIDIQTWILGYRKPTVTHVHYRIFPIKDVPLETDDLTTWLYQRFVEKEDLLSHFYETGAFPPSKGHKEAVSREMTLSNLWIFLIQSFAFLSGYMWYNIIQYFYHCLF
UniProt Q8TCD1: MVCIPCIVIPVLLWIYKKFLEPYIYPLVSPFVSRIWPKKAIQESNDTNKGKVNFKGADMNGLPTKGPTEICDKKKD
UniProt Q92572: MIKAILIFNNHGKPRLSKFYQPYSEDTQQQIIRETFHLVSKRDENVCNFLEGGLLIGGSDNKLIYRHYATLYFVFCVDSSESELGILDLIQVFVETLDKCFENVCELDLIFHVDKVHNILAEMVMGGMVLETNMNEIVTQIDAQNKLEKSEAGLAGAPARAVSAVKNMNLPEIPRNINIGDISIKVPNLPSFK
UniProt Q8TF01: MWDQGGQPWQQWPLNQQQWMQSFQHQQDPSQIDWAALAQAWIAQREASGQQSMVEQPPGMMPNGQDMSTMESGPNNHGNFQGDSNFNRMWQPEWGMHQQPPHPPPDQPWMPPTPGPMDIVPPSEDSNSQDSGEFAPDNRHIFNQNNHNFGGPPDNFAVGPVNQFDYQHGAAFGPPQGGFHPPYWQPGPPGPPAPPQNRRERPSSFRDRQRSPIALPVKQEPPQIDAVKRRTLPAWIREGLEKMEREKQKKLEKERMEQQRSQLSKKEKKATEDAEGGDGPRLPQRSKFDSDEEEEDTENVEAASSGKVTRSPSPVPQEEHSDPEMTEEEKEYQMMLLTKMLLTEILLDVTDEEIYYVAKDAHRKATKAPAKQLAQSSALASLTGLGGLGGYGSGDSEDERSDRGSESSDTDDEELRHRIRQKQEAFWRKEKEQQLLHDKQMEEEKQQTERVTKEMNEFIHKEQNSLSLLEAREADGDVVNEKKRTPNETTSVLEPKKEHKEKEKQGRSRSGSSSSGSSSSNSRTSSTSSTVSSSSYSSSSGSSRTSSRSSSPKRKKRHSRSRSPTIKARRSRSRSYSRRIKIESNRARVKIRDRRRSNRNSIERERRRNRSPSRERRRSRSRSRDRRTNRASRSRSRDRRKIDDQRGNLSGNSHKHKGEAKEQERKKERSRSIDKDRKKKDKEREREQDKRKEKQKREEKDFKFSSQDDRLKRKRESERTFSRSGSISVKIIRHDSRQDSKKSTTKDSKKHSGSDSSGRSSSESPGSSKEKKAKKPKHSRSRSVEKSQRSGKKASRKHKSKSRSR
UniProt Q92585: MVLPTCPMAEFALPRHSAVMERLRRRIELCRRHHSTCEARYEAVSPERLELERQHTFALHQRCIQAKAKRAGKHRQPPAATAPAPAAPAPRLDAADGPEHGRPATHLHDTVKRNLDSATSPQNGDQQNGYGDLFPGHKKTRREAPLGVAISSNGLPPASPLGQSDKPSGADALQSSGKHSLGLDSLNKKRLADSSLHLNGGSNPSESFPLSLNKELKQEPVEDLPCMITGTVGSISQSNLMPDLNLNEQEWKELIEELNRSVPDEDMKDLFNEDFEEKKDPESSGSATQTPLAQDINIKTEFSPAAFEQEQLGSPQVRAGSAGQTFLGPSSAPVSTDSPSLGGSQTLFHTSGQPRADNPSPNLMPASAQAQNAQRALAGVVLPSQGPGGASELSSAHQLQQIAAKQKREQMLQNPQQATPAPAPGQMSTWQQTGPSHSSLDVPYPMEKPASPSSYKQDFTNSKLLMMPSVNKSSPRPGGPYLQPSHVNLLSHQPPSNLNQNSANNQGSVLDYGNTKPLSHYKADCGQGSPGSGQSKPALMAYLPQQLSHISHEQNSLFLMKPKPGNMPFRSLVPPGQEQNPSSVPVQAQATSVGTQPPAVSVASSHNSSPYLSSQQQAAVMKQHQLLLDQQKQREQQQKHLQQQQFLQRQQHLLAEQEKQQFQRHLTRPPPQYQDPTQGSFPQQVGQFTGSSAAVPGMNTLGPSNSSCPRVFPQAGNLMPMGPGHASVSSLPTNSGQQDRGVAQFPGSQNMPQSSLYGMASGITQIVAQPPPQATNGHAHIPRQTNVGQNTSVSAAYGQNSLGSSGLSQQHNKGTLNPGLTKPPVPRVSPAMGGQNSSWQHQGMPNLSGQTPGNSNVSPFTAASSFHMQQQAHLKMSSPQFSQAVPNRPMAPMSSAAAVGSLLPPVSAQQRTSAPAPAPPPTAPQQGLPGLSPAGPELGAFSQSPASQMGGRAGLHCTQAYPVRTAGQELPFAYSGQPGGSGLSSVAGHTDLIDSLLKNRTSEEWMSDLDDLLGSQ

Compound: Nc1ncnc2c1ncn2[C@@H]1O[C@H](COP(=O)(O)OP(=O)(O)NP(=O)(O)O)[C@@H](O)[C@H]1O [adenylyl imidodiphosphate]
Assay: NP40-soluble protein abundance relative to vehicle (solubility fold change) (ratio); higher = more soluble protein in presence of AMP-PNP
Summary of the method: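 Across three independent experiments, values are fold changes against the detergent-processed vehicle for each replicate, based on vsn-normalised intensities. The samples were Jurkat crude lysate treated with eight concentrations (0.1 to 10 mM) for 10 min at room temperature and then 3 min at 37 °C. Lysate was solubilised with 0.8% NP40 and benzonase, ultracentrifuged, and the supernatant analysed by TMT-labelled LC-MS/MS.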

Target	NP40-soluble protein abundance (concentration: 1mM)	NP40-soluble protein abundance (concentration: 2mM)	NP40-soluble protein abundance (concentration: 4mM)	NP40-soluble protein abundance (concentration: 6mM)	NP40-soluble protein abundance (concentration: 8mM)	NP40-soluble protein abundance (concentration: 10mM)
UniProt Q8TAP6 and related entries	0.992 ± 0.028	0.999 ± 0.037	0.982 ± 0.051	0.969 ± 0.034	1.01 ± 0.034	0.985 ± 0.03
GPKOW (UniProt Q92917)	1.06 ± 0.021	1.1 ± 0.057	1.05 ± 0.046	1.04 ± 0.019	1.015 ± 0.0094	1.06 ± 0.025
UniProt Q8TBX8	0.98 ± 0.02	0.979 ± 0.0079	1.01 ± 0.024	1.044 ± 0.0097	1.06 ± 0.04	1.07 ± 0.034
BAP1 (UniProt Q92560)	1.02 ± 0.031	1.05 ± 0.031	1.03 ± 0.03	1 ± 0.016	0.989 ± 0.036	1.02 ± 0.031
GIMAP7 (UniProt Q8NHV1)	0.978 ± 0.028	0.932 ± 0.024	0.946 ± 0.042	0.8985 ± 0.007	0.88 ± 0.012	0.862 ± 0.046
UniProt Q8WWW0 and related entries	0.9981 ± 0.0063	0.996 ± 0.033	1.02 ± 0.018	1.03 ± 0.039	1.02 ± 0.029	1.03 ± 0.052
SORL1 (UniProt Q92673)	1.01 ± 0.012	1.05 ± 0.066	1.02 ± 0.014	1.01 ± 0.019	0.992 ± 0.01	1.03 ± 0.011
NSUN6 (UniProt Q8TEA1)	1.03 ± 0.012	1.01 ± 0.043	1.02 ± 0.024	1 ± 0.035	1 ± 0.012	1.02 ± 0.023
TRUB1 (UniProt Q8WWH5)	1.05 ± 0.023	1.07 ± 0.047	1.04 ± 0.025	1.05 ± 0.037	1.05 ± 0.011	1.08 ± 0.048
NUP37 (UniProt Q8NFH4)	0.97 ± 0.086	0.896 ± 0.076	0.967 ± 0.071	0.98 ± 0.032	1 ± 0.037	1 ± 0.04
UniProt Q8TCB7 and related entries	0.989 ± 0.012	0.993 ± 0.019	0.9941 ± 0.0093	1.01 ± 0.019	1.01 ± 0.009	1.04 ± 0.028
SMARCC1 (UniProt Q92922)	1.05 ± 0.063	1.1 ± 0.05	1.04 ± 0.041	1.07 ± 0.086	1.04 ± 0.077	1.1 ± 0.11
UniProt Q8TC07-2	0.994 ± 0.019	0.939 ± 0.059	0.976 ± 0.024	0.913 ± 0.021	0.934 ± 0.0098	0.905 ± 0.042
ZNF516 (UniProt Q92618)	1.007 ± 0.0043	1.02 ± 0.075	1.013 ± 0.0072	1.01 ± 0.011	0.99588 ± 0.00056	1.03 ± 0.053
NUP133 (UniProt Q8WUM0)	0.96 ± 0.011	0.922 ± 0.018	0.958 ± 0.027	0.905 ± 0.018	0.9213 ± 0.0033	0.932 ± 0.03
UniProt Q8TF46 and related entries	1.02 ± 0.038	1.01 ± 0.055	1.04 ± 0.068	0.994 ± 0.043	1.03 ± 0.046	1.05 ± 0.013
LRRC8C (UniProt Q8TDW0)	1.008 ± 0.0067	1 ± 0.013	0.997 ± 0.049	0.995 ± 0.03	1 ± 0.03	0.953 ± 0.031
UniProt Q8TEA7 and related entries	0.948 ± 0.089	0.94 ± 0.08	0.959 ± 0.029	0.939 ± 0.05	0.956 ± 0.041	0.94 ± 0.06
GRPEL2 (UniProt Q8TAA5)	1.01 ± 0.015	1.038 ± 0.0016	1.024 ± 0.0071	1.04 ± 0.045	1.043 ± 0.0071	1.03 ± 0.025
C15orf40 (UniProt Q8WUR7)	1.02 ± 0.014	1.03 ± 0.067	0.988 ± 0.024	1.01 ± 0.056	0.95 ± 0.019	0.965 ± 0.011
GATAD2B (UniProt Q8WXI9)	1.01 ± 0.014	1.06 ± 0.046	1.024 ± 0.0076	1.01 ± 0.049	0.994 ± 0.035	1.02 ± 0.03
UniProt Q92540 and related entries	0.986 ± 0.028	1.03 ± 0.031	1.01 ± 0.032	0.973 ± 0.035	0.96 ± 0.025	0.978 ± 0.022
UniProt Q92918-2|K7ER95	1.03 ± 0.017	0.979 ± 0.025	1.02 ± 0.034	0.984 ± 0.028	0.9752 ± 0.0054	0.984 ± 0.025
ELMO1 (UniProt Q92556)	0.966 ± 0.018	0.947 ± 0.021	0.9671 ± 0.0054	0.986 ± 0.018	0.9785 ± 0.0086	0.9827 ± 0.0036
UniProt Q92766 and related entries	1.04 ± 0.026	1.04 ± 0.063	1.05 ± 0.044	1.01 ± 0.02	0.995 ± 0.043	1.03 ± 0.06

Retrieved one by one from above, two records:
Target	NP40-soluble protein abundance (concentration: 1mM)	NP40-soluble protein abundance (concentration: 2mM)	NP40-soluble protein abundance (concentration: 4mM)	NP40-soluble protein abundance (concentration: 6mM)	NP40-soluble protein abundance (concentration: 8mM)	NP40-soluble protein abundance (concentration: 10mM)
UniProt Q8TBX8	0.98 ± 0.02	0.979 ± 0.0079	1.01 ± 0.024	1.044 ± 0.0097	1.06 ± 0.04	1.07 ± 0.034
GPKOW (UniProt Q92917)	1.06 ± 0.021	1.1 ± 0.057	1.05 ± 0.046	1.04 ± 0.019	1.015 ± 0.0094	1.06 ± 0.025

Next results follow.

Target	NP40-soluble protein abundance (concentration: 1mM)	NP40-soluble protein abundance (concentration: 2mM)	NP40-soluble protein abundance (concentration: 4mM)	NP40-soluble protein abundance (concentration: 6mM)	NP40-soluble protein abundance (concentration: 8mM)	NP40-soluble protein abundance (concentration: 10mM)
TGFBRAP1 (UniProt Q8WUH2)	0.96 ± 0.042	0.89 ± 0.093	0.93 ± 0.048	0.895 ± 0.064	0.916 ± 0.047	0.889 ± 0.052
UniProt Q92636 and related entries	0.969 ± 0.041	0.909 ± 0.12	0.955 ± 0.07	0.982 ± 0.034	0.981 ± 0.057	0.976 ± 0.042
PSPC1 (UniProt Q8WXF1)	1.03 ± 0.024	1.05 ± 0.054	1.09 ± 0.015	1.13 ± 0.026	1.14 ± 0.049	1.14 ± 0.053
UniProt Q8TBE0 and related entries	1.04 ± 0.063	1.03 ± 0.09	1.07 ± 0.037	1.05 ± 0.05	1.02 ± 0.031	1.02 ± 0.04
IP6K1 (UniProt Q92551)	0.982 ± 0.021	0.996 ± 0.025	1 ± 0.059	0.978 ± 0.037	0.984 ± 0.083	1.01 ± 0.1
CMAS (UniProt Q8NFW8)	1.04 ± 0.013	1.04 ± 0.044	1.13 ± 0.018	1.18 ± 0.051	1.22 ± 0.05	1.24 ± 0.031
PMM1 (UniProt Q92871)	1.02 ± 0.014	0.955 ± 0.066	1.01 ± 0.017	1 ± 0.018	1.01 ± 0.024	0.997 ± 0.035
PCNP (UniProt Q8WW12)	1.05 ± 0.03	1.26 ± 0.27	1.1 ± 0.076	1.18 ± 0.056	1.17 ± 0.044	1.23 ± 0.08
UniProt Q92793 and related entries	1.05 ± 0.037	1.05 ± 0.028	1.01 ± 0.035	1.01 ± 0.04	1.02 ± 0.015	1.05 ± 0.02
UniProt Q92804 and related entries	1.07 ± 0.15	1.15 ± 0.031	1.19 ± 0.17	1.27 ± 0.21	1.32 ± 0.13	1.54 ± 0.23
LPGAT1 (UniProt Q92604)	0.944 ± 0.016	0.931 ± 0.017	0.9501 ± 0.0046	0.9566 ± 0.0013	0.991 ± 0.023	0.9529 ± 0.0026
UniProt Q8TEP8-3	0.968 ± 0.014	0.983 ± 0.045	0.974 ± 0.027	0.973 ± 0.016	0.961 ± 0.02	0.944 ± 0.022
UniProt Q92900 and related entries	0.983 ± 0.023	0.918 ± 0.075	0.954 ± 0.015	0.957 ± 0.01	0.962 ± 0.026	0.925 ± 0.03
UniProt Q92542 and related entries	0.978 ± 0.022	0.99 ± 0.059	1 ± 0.028	0.983 ± 0.02	0.969 ± 0.018	0.992 ± 0.036
C18orf32 (UniProt Q8TCD1)	0.93 ± 0.024	0.992 ± 0.013	0.934 ± 0.025	0.944 ± 0.031	0.901 ± 0.027	0.882 ± 0.047
GCDH (UniProt Q92947)	0.963 ± 0.013	0.911 ± 0.027	0.929 ± 0.047	0.94 ± 0.035	0.911 ± 0.043	0.895 ± 0.046
UniProt Q92572	0.972 ± 0.016	0.958 ± 0.02	0.957 ± 0.021	0.962 ± 0.029	0.953 ± 0.027	0.933 ± 0.0066
NOC3L (UniProt Q8WTT2)	1.09 ± 0.046	1.13 ± 0.1	1.11 ± 0.048	1.24 ± 0.048	1.23 ± 0.052	1.28 ± 0.085
UniProt Q8TF01	1.04 ± 0.052	1.05 ± 0.064	1.04 ± 0.069	1.08 ± 0.085	1.04 ± 0.083	1.07 ± 0.15
MAML1 (UniProt Q92585)	0.9881 ± 0.0068	1.03 ± 0.044	1.01 ± 0.055	0.9797 ± 0.0086	0.985 ± 0.058	0.976 ± 0.026
UniProt Q8WXH0 and related entries	1.008 ± 0.004	1.01 ± 0.015	0.984 ± 0.015	0.941 ± 0.013	0.906 ± 0.026	0.919 ± 0.018
UniProt Q92552 and related entries	0.976 ± 0.047	0.963 ± 0.048	0.954 ± 0.094	0.962 ± 0.13	0.928 ± 0.095	0.951 ± 0.16
UniProt Q8NEJ9 and related entries	1 ± 0.046	1 ± 0.01	1.005 ± 0.0025	1.01 ± 0.089	1.008 ± 0.0029	1 ± 0.02
UniProt Q8TAT6 and related entries	0.955 ± 0.025	0.961 ± 0.022	0.968 ± 0.044	0.983 ± 0.015	0.991 ± 0.036	1.02 ± 0.025
